According to patent publication US20110206685A1, “SCREENING ASSAYS FOR INHIBITORS OF A STAPHYLOCOCCUS AUREUS SIDEROPHORE” (priority 2004, published 2011):
At least one structure is not confirmed: it was looked up by name or label, or the drawing left a doubt.

Tested on: sbnD mutant and wild type strains
Test: MIC comparison of sbnD mutant and wild type strains
Type: cell-based, Staphylococcus aureus
Details: sbnD::Km mutant versus wild type
Text: SbnD encodes a putative multi-drug efflux pump. A mutation in sbnD was created by insertion of a Km cassette.

CC[n+]1c(-c2ccccc2)c2cc(N)ccc2c2ccc(N)cc21 [ethidium bromide]
difference in MIC (minimum inhibitory concentration) values between sbnD mutant and wild type strains: No difference

CN(C)[C@@H]1C(O)=C(C(N)=O)C(=O)[C@@]2(O)C(O)=C3C(=O)c4c(O)cccc4[C@@](C)(O)[C@H]3C[C@@H]12 [tetracycline]
difference in MIC (minimum inhibitory concentration) values between sbnD mutant and wild type strains: No difference
